Data: PubChem BioAssay AID504847 (National Center for Advancing Translational Sciences (NCATS), 2011)
“And” between values parts separate entries of the source, which are not always exact repeats. Identical values can stand only once. Screen size: about 400,000 compounds; about 3,700 (0.93%) were called active. Inconclusive results, whose numbers are uncertain, are shown with a selection of clear calls. The call rests on the fitted dose curve; in most records, active means well fitted inhibition curve with a large enough effect; inconclusive means small, poorly fitted or top-dose-only effect, or another doubt; inactive means no such curve, though single readings can be large or run the other way. Potencies of inconclusive entries are doubtful fits and often do not repeat.

Amino acid sequences for entries named in this document (tags omitted). A change or cut given only in a name is not applied to a line headed by its entry.
UniProt P11473: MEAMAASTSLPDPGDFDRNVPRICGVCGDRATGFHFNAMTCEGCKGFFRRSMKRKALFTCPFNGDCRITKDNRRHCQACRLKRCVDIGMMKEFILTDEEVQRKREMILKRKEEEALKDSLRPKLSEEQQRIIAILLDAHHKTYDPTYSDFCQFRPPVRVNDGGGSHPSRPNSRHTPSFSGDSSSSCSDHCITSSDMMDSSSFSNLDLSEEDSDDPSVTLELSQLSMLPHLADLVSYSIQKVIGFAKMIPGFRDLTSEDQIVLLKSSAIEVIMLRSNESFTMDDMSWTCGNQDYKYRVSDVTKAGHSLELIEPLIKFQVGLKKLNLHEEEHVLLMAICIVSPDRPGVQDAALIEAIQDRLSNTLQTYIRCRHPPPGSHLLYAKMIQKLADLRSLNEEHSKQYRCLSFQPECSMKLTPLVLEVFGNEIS

What follows are compounds tested against Vitamin D3 receptor (Homo sapiens) (UniProt P11473) (assay: Inhibitors of the vitamin D receptor (VDR): qHTS). Conditions: VDR-SRC2-3 peptide fluorescence polarization, 2 h; max response, negative = inhibition: active compounds read low.
Method in brief: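 Reagent solutions, kept cold and dark, are dispensed first; compounds are then pinned in at 23 nl, plates briefly spun, and incubated 2 h at ambient temperature. Inhibition of VDR–SRC2-3 peptide binding is read by fluorescence polarization.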
On the % scale 0 is the no-effect control and ±100 the full control effect; potency means the concentration at half of the fitted maximal effect.

Potency, active:
CC(C)c1nnc(NC(=O)c2nc(S(=O)(=O)Cc3ccccc3F)ncc2Cl)s1 20 µM
CC(=O)OCCNc1cc(Sc2nc3ccccc3[nH]2)c2nonc2c1[N+](=O)[O-] 14.1 µM
COc1ccc(-c2cc3c(nn2)-c2ccccc2C3=O)cc1 79.4 µM
O=C(c1ccco1)N1CCC[C@@]2(CCN(c3ccccc3)C2)C1 44.7 µM
CCCOc1ccccc1/C=C1/C(=O)ON=C1C 25.1 µM
CN(Cc1ccco1)c1ccnc(-c2cccnc2)n1 44.7 µM

Potency, inconclusive:
CC(=O)C1=C(O)C(=O)N(c2ccc(O)cc2)C1c1cccc([N+](=O)[O-])c1 (stereo not given) 0.631 µM [inhibitor, full curve, poor fit]
CCN(CC)C(=O)c1cccc(NC(=O)c2ccc3c(=O)n4c(nc3c2)CCC4)c1 89.1 µM [inhibitor, single point]
O=C1C(Cl)=C(N2CCOCC2)C(=O)N1c1ccccc1 31.6 µM [inhibitor, partial curve, poor fit]
Cn1c(=O)c2sccc2n2c(CCCC(=O)N3CCCCC3)nnc12 89.1 µM [inhibitor, single point]
Cc1ccc(S(=O)(=O)NCCC(=O)Nc2ccc(C)cc2C(=O)c2ccccc2)cc1 89.1 µM [inhibitor, single point]
CCc1ccc([C@@H]2CC=C(C(=O)O)[C@H](c3ccc(Br)cc3)N2S(=O)(=O)c2ccc(C)cc2)cc1 89.1 µM [inhibitor, single point]
COc1cccc(C2CC(=O)N3CN(C4CCCCC4)CSC3=C2C#N)c1 (stereo not given) 35.5 µM [inhibitor, partial curve]
COc1ccccc1C(OC(=O)c1cccs1)C(=O)NCc1ccco1 (stereo not given) 56.2 µM [inhibitor, partial curve, poor fit]
O=C(c1ccco1)n1nc(-c2ccccc2)nc1NCc1ccccc1Cl 70.8 µM [inhibitor, partial curve, poor fit]
Cc1ccc(OCc2nnc(SCC(=O)c3cccs3)n2-c2ccccc2)cc1C 89.1 µM [inhibitor, single point]
O=C(Nc1ccc(S(=O)(=O)Nc2cnc3ccccc3n2)cc1)c1ccc(Cl)c([N+](=O)[O-])c1 31.6 µM [inhibitor, partial curve, poor fit]
CC(C)[C@H](NC(=O)OC(C)(C)C)c1nnc(S(=O)(=O)Cc2c(F)cccc2Cl)o1 22.4 µM [inhibitor, full curve, poor fit]
CCS(=O)(=O)c1ccc2oc(SCC(=O)NCCc3ccc(OC)cc3)nc2c1 79.4 µM [inhibitor, single point]
COc1ccc(Nc2ccc([N+](=O)[O-])c3nonc23)c(OC)c1 20 µM [inhibitor, partial curve, poor fit]
O=C(O)c1ccc(NC(=O)c2ccccc2NC(=O)c2cccc(Br)c2)cc1 70.8 µM [inhibitor, partial curve]
COc1ccccc1CNc1ncncc1-c1ccc2c(c1)OCO2 22.4 µM [inhibitor, full curve]
Cn1c(N)c(C(=O)Nc2ccc(-c3ccccc3)cc2)sc1=S 89.1 µM [inhibitor, partial curve, poor fit]
Nc1nc(-c2ccccc2)c(-c2ccccc2)s1 89.1 µM [inhibitor, partial curve, poor fit]
CCCCCCCNC(=O)C1(CC2CC(c3cccc(Br)c3)=NO2)CCN(C(=O)Cc2ccc(F)cc2)CC1 (stereo not given) 89.1 µM [inhibitor, partial curve, poor fit]
CCOC(=O)c1cnn(-c2ccccc2)c1NC(=O)CN1CCOCC1 2.51 µM [inhibitor, full curve, poor fit]
CCNc1ncc2nc(-c3ccccc3)c(=O)n(C)c2n1 89.1 µM [inhibitor, single point]
Cc1ccc(C(C(=O)NCc2ccco2)N(Cc2ccco2)C(=O)CNC(=O)c2ccco2)cc1 (stereo not given) 100 µM [inhibitor, single point]
CCc1c(C)nc2c(C)cccc2c1SCCC#N 89.1 µM [inhibitor, single point]
Cc1ccc(Oc2nc(-c3ccccc3)ncc2S(C)(=O)=O)cc1 89.1 µM [inhibitor, partial curve, poor fit]
CCOC(=O)c1c(N)sc(C)c1-c1ccccc1 79.4 µM [inhibitor, single point]
COC(=O)c1cc(Cl)ccc1NC(=O)CSc1ncc(S(=O)(=O)c2ccc(Br)cc2)c(=O)[nH]1 56.2 µM [inhibitor, partial curve, poor fit]
Cc1oc2c(c1C(=O)Nc1cccc3ccccc13)CCCC2 7.08 µM [inhibitor, single point]
O=C(CSc1ccccn1)N1CCN(c2ncc(C(F)(F)F)cc2Cl)CC1 89.1 µM [inhibitor, single point]
COc1cc2c(c(OC)c1OC)-c1ccc(SC)c(=O)cc1C(NC=O)CC2 (stereo not given) 89.1 µM [inhibitor, single point]
Nc1nc(-c2ccc(Oc3ccccc3)cc2)c(CC(=O)O)s1 79.4 µM [inhibitor, partial curve, poor fit]
COc1ccc(/C(C)=N/NC(=O)c2ccccc2OCc2ccccc2)c(OC)c1 44.7 µM [inhibitor, partial curve, poor fit]
Cc1c(-c2cc(C(=O)O)no2)cnn1C 79.4 µM [inhibitor, partial curve, poor fit]
O=c1cnc2cnc(Oc3cccc(Cl)c3)nc2n1Cc1ccc(F)cc1 25.1 µM [inhibitor, partial curve]
O=C(CN1CC[n+]2c(-c3cccs3)csc21)c1ccc(-c2ccccc2)cc1 79.4 µM [inhibitor, single point]
Cc1ccc(-c2nc(C=Nc3ccccc3)c(O)o2)cc1 56.2 µM [inhibitor, partial curve, poor fit]
CCOc1cccc(NC(=O)c2sc3nc(-c4ccc(F)cc4)ccc3c2N)c1 70.8 µM [inhibitor, partial curve, poor fit]
O=C(NCc1ccccc1)c1cccc2c1C(=O)c1ccc(/C=C/c3ccccc3)cc1S2(=O)=O 39.8 µM [inhibitor, partial curve, poor fit]
CCOC(=O)C1CCN(C(c2ccc(OCC)cc2)c2c(O)cc(C)n(CCOC)c2=O)CC1 (stereo not given) 39.8 µM [inhibitor, single point]
O=C(O)Cn1cc(/C=C2/SC(=O)N(CC(=O)N3CCCCCC3)C2=O)c2ccccc21 79.4 µM [inhibitor, partial curve, poor fit]
CC1CCCCN1C(=S)Nc1ccc(OC(F)F)cc1 (stereo not given) 79.4 µM [inhibitor, partial curve]
C#CCOCCOCCOCCNc1nc(N2CCOCC2)nc(N2CCN(C(=O)Cn3cc(CCCN=C(N)N)nn3)CC2)n1 100 µM [inhibitor, partial curve, poor fit]

Max response, negative = inhibition, inactive:
C=CCc1c(O)nc(SCC(=O)c2ccccc2)[nH]c1=O -0.107%
O=C(NC1CCCC1)c1ccc(CSc2nc3ccncc3n2Cc2ccc(F)cc2)cc1 -4.36% and -0.787%
O=C(CSc1nc2cc(Cl)c(Cl)cc2[nH]1)c1ccc2c(c1)OCO2 12.9%
COc1ccc(N=C2NN=C(c3ccc4c(c3)OCCO4)CS2)cc1 -9.81%
CCCCn1c2nc3ccccc3nc2c2c(=O)n(CCC)cnc21 0.542%
Cc1ccc(C)c(N(CC(=O)NC2CCCCC2)C(=O)c2csnn2)c1 -17.3%
NC(=O)[C@@H]1CCCCNc2c(F)cc([N+](=O)[O-])cc2C(=O)N[C@@H](CC(=O)O)C(=O)NCC(=O)N1 -1.1%
c1ccc(Cn2c(CNc3nc4ccccc4n3CCN3CCOCC3)nc3ccccc32)cc1 -12.1%
CN(C)c1ccc(C2/C(=C(/O)c3ccccc3)C(=O)C(=O)N2CCCC(=O)O)cc1 (stereo not given) -15.7%
CN(C)CCCNCCCNC(=O)c1ccco1 8.82% and -0.891%
Cc1cc(N2CCCCC2)nc(NCc2ccccc2)n1 -3.69%
CC(=O)Nc1nonc1-c1nnc(SCC(=O)Nc2cc(Cl)ccc2C)n1C 15.7%
C[n+]1ccc(C(=O)N/N=C/c2ccco2)cc1 -19.9%
CCOC(=O)C1=C(O)CSC1=Nc1ccccc1 -10.2%
COc1cccc(/C(O)=C2/C(=O)C(=O)N(CCN3CCOCC3)C2c2cccs2)c1 (stereo not given) -10.7%
O=C(CSc1ccc(-c2ccco2)nn1)NCc1ccc(F)cc1 -13.2%
C=CCn1c(C)cc(C2=NNC(=NC(C)(C)C)SC2)c1C -7.07%
CCn1cc(C(=O)O)c(=O)c2cnc(N3CCN(C(=S)Nc4ccccc4Cl)CC3)nc21 5.05%
